Drawing on doi:10.1101/438911, this text covers binding for one molecule.

No constants are given. Whether binding was seen depends on the method and setting. In cells and extracts the contact can be indirect. A yes stands for co-enrichment or nearness to the bait. Other partners may have been found.

For the assay, the target named is Piwi4-FLAG (C-terminal FLAG tagged Piwi4) (Aedes aegypti). The assay is described as follows: affinity purification with mass spectrometry.

B1: Argonaute-2 (Ago2) (protein, UniProt C5J0H4 1-992)
chain: MILNARYLYIPCRQKQQQQQQQPQQQQQHQQKQQSQQQQQQQQQQQRSKEQGSQQQQRPQQQAQQQQPSQQQQQSQKQQHPQQQQQQRPQKQQQQFQQDQRPQQQQQQLQKQQQQQGQSWRPQSHDPSPASGSHSHSSSPSHAAALERVEEDFSKIKIDKQKIHSSALLPVLMRPNAHGTRGRAIKVEVNYIQLLLERLIPTAYHYDVDIQPAASRKWQRLAFSEFTKQMFPNHGFAFDGHKNAYAARRLQADVYEQEVKVRDEGRERRFKVAMKEAAVLDMTCLKTYMNNGSTLDKPMSAIQCLDIVLRTAYENNPRFIKFKKSIYVKPDRPDDIGSNHELWYGLFQSALLGARPFLNIDVSHKAFPTGGPVLRILVDMNRGQVPDRVTDWMSRDLHDFLKGMELSYTGPDGVSKLFKYNSIKSPANQQKFKLENGTEMTIDQYFRSKNKQLRYPSLPVLHVGSLVRNVMLPIELCSIPPGQALNKKHPDQCTQFIIRKSATDTATRKRKIMDLFNQIGYNNAPTIKEFGVSVGNNFETVDGRILDPPELSYRNDRRVKPMRGVWRADNMNFIIPSTEITRRELSWTILNLDGRTRPDAIDEFGRNIYQMSLKQGVQLQQFSMKNNFYEPRDMRFAVKDLDNIFDELKKRKIDLVFVVIPSPGRDGDVYAKVKQKAELCVGLLTQCIKSFTLDKKRGDMSTISNIWLKINAKTNGSNHVLAKNFKPPIARKTVMYVGADVTHPSPEQTNIPSVVGVAASYDLEGFRYNCCYRLQGPKDEMIRDLQNIVIKQLRQFKQTNQSLPELIMYYRDGVSEGQFQEVLTIELRAMQAAAASVQQGYKPNITFIVVQKRHHARFFPTANCPTEGRNNNVQPGTIVDRYITAPNQYQFFLVSHAAVQGVAKPTKYCVLYDDENCNPDQLQALTYYLCHMFTRCNRAVSYPAPTYYAHLAAYRGRVYIKDRPLNMNNLTKEYERMQIRTEIQDGHPMFFV
On to B1, for which the binding entry is “binds”.
